PubChem BioAssay AID504804 – Drosophila RNAi Screening Center, 2011
Purpose: 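dsRNAs that improve Kc cell survival under doxorubicin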 (primary screen). Cell system: Drosophila Kc cells. Reagents: long dsRNA against Drosophila genes, 0.5 µg dsRNA per well. Time to read-out: 96 h (48 h knock-down, then 48 h drug). Treatment: doxorubicin 5 µg/ml for 48 h, added 48 h after dsRNA. Measured: 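Luminescent ATP counts per replicate, not normalised, reflecting viable cells after 48 h dsRNA knock-down followed by 48 h of 5 µg/ml doxorubicin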. Direction: raw ATP luminescence: higher = more viable cells, protection from doxorubicin. Call rule: 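Active when both duplicate wells lie at least 2 SD above the plate mean and protection is confirmed by rescreening and independent dsRNAs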.
In all, the deposit lists about 19,000 reagents; below is a random part of those with a known target gene and a result. In the full data, 47 (0.25%) were called active. 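Signals are raw, not normalised; exact z-scores behind calls not deposited; actives needed confirmation, so some wells reaching 2 SD are inactive.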 A number with no mark means an inactive call. Reagent sequences are not shown.

Target gene	amplicon	raw ATP luminescence, replicate 1	raw ATP luminescence, replicate 2
CG13744	DRSC06415	42310	86460
Sytbeta	DRSC10009	33000	37803
Sytbeta	DRSC10351	57613	56680
CG5853	DRSC01103	2.80e5	2.64e5
CG5853	DRSC02906	82790	57940
CG1418	DRSC06447	39850	86620
COX5BL	DRSC02123	24607	33533
Gr39b	DRSC01848	70550	54847
Gpo3	DRSC01978	78280	96717
CG32104	DRSC10127	54550	50217
CG32104	DRSC10128	55507	65600
Act88F	DRSC14105	91030	69760
ppk30	DRSC15302	60530	50940
nan	DRSC10551	55357	50010
CG16753	DRSC08489	40900	45050
Prp38	DRSC07060	47743	50243
UK114	DRSC01973	68210	70843
CG17118	DRSC02579	37140	60460
Nup107	DRSC01999	21507	29607
GATAd	DRSC02803	99360	78707
CG3558	DRSC00615	1.17e5	72897
Cap-D3	DRSC02349	26830	24887
Bet5	DRSC14600	32860	36460
Rh7	DRSC10529	32513	44617
CG10465	DRSC04848	53753	61100
Cln3	DRSC10520	87007	54143
sel	DRSC06232	73170	68823
stw	DRSC04842	47770	46580
stw	DRSC04843	63363	49647
CG4459	DRSC15582	53990	57200
CG6083	DRSC10580	58703	64640
Ent1	DRSC00330	1.13e5	74227
Polr2C	DRSC03415	61507	54053
CG11498	DRSC14315	55990	58280
CG4631	DRSC02766	42747	66003
Piezo	DRSC03092	1.14e5	61587
Jwa	DRSC02048	78850	45080
CG5569	DRSC04514	56960	60233
Cp190	DRSC16607	51720	18357
CG5225	DRSC15742	79510	78610
CG16974	DRSC02551	1.24e5	53780
CG4325	DRSC18516	12850	15270
CG14421	DRSC17918	57870	51820
CG9837	DRSC16573	55487	59703
phr	DRSC07662	44783	98800
CG14036	DRSC02361	26047	31420
CG31809	DRSC01561	2.76e5	2.39e5
CG11594	DRSC08207	51810	37837
BBS5	DRSC12168	70683	59500
Sec31	DRSC07131	65893	52857
CG5664	DRSC11782	1.84e5	2.21e5
RpL30	DRSC02087	42990	49920
firl	DRSC02428	72383	74813
Sting	DRSC06615	39790	74433
Dcr-1	DRSC15646	56947	55620
Rfk	DRSC15454	53850	55350
superdeath	DRSC14868	1.72e5	2.16e5

Part of the list above, reformatted.
Target gene | amplicon | raw ATP luminescence, replicate 1 | raw ATP luminescence, replicate 2
CG4631 | DRSC02766 | 42747 | 66003
Piezo | DRSC03092 | 1.14e5 | 61587
Jwa | DRSC02048 | 78850 | 45080
CG5569 | DRSC04514 | 56960 | 60233
Cp190 | DRSC16607 | 51720 | 18357
CG5225 | DRSC15742 | 79510 | 78610
